Reference: paper PMC5378395
Numbering of substitutions follows the chain as printed. Names and notes keep the numbering of the source. Results are given in words; binding and its absence hold for the method and conditions named. For some assays here: In cells and extracts the contact can be indirect. Some results given as binding are weak or reduced against the parent protein; the word gives no strength.

Amino acid sequences for entries named in this document (tags omitted).
UniProt Q6NXT1: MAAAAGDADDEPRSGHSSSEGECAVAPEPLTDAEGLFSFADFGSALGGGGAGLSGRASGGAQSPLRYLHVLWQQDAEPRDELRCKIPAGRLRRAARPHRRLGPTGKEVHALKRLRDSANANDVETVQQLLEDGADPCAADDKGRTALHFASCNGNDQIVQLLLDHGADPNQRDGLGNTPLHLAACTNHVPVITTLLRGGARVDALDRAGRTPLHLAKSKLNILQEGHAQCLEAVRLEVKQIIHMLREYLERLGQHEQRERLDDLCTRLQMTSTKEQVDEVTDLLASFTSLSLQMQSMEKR

B1: BTK P265A mutant (protein, UniProt Q06187 1-659)
chain: MAAVILESIFLKRSQQKKKTSPLNFKKRLFLLTVHKLSYYEYDFERGRRGSKKGSIDVEKITCVETVVPEKNPPPERQIPRRGEESSEMEQISIIERFPYPFQVVYDEGPLYVFSPTEELRKRWIHQLKNVIRYNSDLVQKYHPCFWIDGQYLCCSQTAKNAMGCQILENRNGSLKPGSSHRKTKKPLPPTPEEDQILKKPLPPEPAAAPVSTSELKKVVALYDYMPMNANDLQLRKGDEYFILEESNLPWWRARDKNGQEGYIASNYVTEAEDSIEMYEWYSKHMTRSQAEQLLKQEGKEGGFIVRDSSKAGKYTVSVFAKSTGDPQGVIRHYVVCSTPQSQYYLAEKHLFSTIPELINYHQHNSAGLISRLKYPVSQQNKNAPSTAGLGYGSWEIDPKDLTFLKELGTGQFGVVKYGKWRGQYDVAIKMIKEGSMSEDEFIEEAKVMMNLSHEKLVQLYGVCTKQRPIFIITEYMANGCLLNYLREMRHRFQTQQLLEMCKDVCEAMEYLESKQFLHRDLAARNCLVNDQGVVKVSDFGLSRYVLDDEYTSSVGSKFPVRWSPPEVLMYSKFSSKSDIWAFGVLMWEIYSLGKMPYERFTNSETAEHIAQGLRLYRPHLASEKVYTIMYSCWHEKADERPTFKILLSNILDVMDEES
B2: BTK Y268A mutant (protein, UniProt Q06187 1-659)
chain: B1 chain with A265P, Y268A
B3: BTK P265A/Y268A double mutant (protein, UniProt Q06187 1-659)
chain: B1 chain with Y268A
B4: GAS7 SH3 domain displayed on phage (domain or fragment, UniProt O60861 1-62)
chain: MSGARCRTLYPFSGERHGQGLRFAAGELITLLQVPDGGWWEGEKEDGLRGWFPASYVQLLEK
B5: SNX33 SH3 domain displayed on phage (domain or fragment, UniProt Q8WV41 1-61)
chain: MALKGRALYDFHSENKEEISIQQDEDLVIFSETSLDGWLQGQNSRGETGLFPASYVEIVRS
B6: ARHGAP26 SH3 domain displayed on phage (domain or fragment, UniProt Q9UNA1 756-814)
chain: TPFRKAKALYACKAEHDSELSFTAGTVFDNVHPSQEPGWLEGTLNGKTGLIPENYVEFL
B7: DLG3 SH3 domain displayed on phage (domain or fragment, UniProt Q92796 501-571)
chain: KRSLYVRALFDYDRTRDSCLPSQGLSFSYGDILHVINASDDEWWQARLVTPHGESEQIGVIPSKKRVEKKE
B8: SH3YL1 SH3 domain displayed on phage (domain or fragment, UniProt Q96HL8 283-342)
chain: NQPIEVTALYSFEGQQPGDLNFQAGDRITVISKTDSHFDWWEGKLRGQTGIFPANYVTMN
B9: PLCγ1 SH3 domain displayed on phage (domain or fragment, UniProt P19174 791-851)
chain: TFKCAVKALFDYKAQREDELTFIKSAIIQNVEKQEGGWWRGDYGGKKQLWFPSNYVEEMVN

Experiments:
[1] = biological target: ANKRD54 wild-type with biotinylation target-domain (pEBB-pp-ANKRD54) (UniProt Q6NXT1); assay: pull-down; ANKRD54-BTD-wt and BTK mutants transfected separately into Cos7 cells; ANKRD54 enriched on streptavidin beads, then incubated with each BTK lysate; immunoblot (Fig 6); only the target purified
[2] = biological target: ANKRD54 wild-type with biotinylation target-domain (pEBB-pp-ANKRD54) (UniProt Q6NXT1); assay: phage display bio-panning; biotinylated ANKRD54 from transfected HEK 293T lysate immobilized on M-280 streptavidin beads, incubated with phages of a library of all 296 human SH3 domains; retained clones sequenced; three experiments; only the target purified
[3] = biological target: commercially available recombinant ANKRD54 (UniProt Q6NXT1); assay: ELISA; phage-ELISA; commercially available recombinant ANKRD54 adhered to plastic; SH3 phage dilutions 1:10 to 1:160; data not shown; only the target purified

Row | Binder | binding [1] | binding [2] | binding [3]
1 | B1 | binds |  | 
2 | B2 | no binding |  | 
3 | B3 | no binding |  | 
4 | B4 |  | binds | 
5 | B5 |  | binds | binds weakly
6 | B6 |  | binds | 
7 | B7 |  | binds | 
8 | B8 |  | binds | 
9 | B9 |  | binds | binds weakly
